Data taken from paper PMC12311189.
These are yes or no findings as the source states them, for the method shown. Binding seen in cells or lysates may run through a third protein. These calls come from enrichment with a bait or labelling near it, and not all partners need be listed.

Chains of the proteins cited; added tags and fusions are not shown.
UniProt Q92731: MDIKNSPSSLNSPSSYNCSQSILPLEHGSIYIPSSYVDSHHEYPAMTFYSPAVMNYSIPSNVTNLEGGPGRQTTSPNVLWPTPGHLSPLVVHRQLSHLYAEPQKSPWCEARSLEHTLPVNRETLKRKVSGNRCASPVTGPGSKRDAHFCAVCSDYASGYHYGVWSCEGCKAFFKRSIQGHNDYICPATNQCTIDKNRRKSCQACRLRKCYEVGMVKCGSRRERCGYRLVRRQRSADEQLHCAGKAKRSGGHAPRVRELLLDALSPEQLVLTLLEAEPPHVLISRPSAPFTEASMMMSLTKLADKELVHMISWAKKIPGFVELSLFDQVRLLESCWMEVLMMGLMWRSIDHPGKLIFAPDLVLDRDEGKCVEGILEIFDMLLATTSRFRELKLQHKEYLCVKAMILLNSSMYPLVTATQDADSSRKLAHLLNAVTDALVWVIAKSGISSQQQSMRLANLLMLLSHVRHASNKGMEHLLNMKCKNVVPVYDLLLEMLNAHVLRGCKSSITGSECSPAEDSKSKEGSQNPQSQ
UniProt Q9H765: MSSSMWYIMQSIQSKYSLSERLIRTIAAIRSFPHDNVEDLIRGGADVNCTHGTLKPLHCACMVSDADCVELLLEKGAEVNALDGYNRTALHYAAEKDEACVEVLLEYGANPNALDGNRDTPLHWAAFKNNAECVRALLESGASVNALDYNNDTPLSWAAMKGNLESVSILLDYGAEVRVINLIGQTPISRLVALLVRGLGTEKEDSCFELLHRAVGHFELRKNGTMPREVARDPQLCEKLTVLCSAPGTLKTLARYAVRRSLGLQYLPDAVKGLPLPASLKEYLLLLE
UniProt O95714: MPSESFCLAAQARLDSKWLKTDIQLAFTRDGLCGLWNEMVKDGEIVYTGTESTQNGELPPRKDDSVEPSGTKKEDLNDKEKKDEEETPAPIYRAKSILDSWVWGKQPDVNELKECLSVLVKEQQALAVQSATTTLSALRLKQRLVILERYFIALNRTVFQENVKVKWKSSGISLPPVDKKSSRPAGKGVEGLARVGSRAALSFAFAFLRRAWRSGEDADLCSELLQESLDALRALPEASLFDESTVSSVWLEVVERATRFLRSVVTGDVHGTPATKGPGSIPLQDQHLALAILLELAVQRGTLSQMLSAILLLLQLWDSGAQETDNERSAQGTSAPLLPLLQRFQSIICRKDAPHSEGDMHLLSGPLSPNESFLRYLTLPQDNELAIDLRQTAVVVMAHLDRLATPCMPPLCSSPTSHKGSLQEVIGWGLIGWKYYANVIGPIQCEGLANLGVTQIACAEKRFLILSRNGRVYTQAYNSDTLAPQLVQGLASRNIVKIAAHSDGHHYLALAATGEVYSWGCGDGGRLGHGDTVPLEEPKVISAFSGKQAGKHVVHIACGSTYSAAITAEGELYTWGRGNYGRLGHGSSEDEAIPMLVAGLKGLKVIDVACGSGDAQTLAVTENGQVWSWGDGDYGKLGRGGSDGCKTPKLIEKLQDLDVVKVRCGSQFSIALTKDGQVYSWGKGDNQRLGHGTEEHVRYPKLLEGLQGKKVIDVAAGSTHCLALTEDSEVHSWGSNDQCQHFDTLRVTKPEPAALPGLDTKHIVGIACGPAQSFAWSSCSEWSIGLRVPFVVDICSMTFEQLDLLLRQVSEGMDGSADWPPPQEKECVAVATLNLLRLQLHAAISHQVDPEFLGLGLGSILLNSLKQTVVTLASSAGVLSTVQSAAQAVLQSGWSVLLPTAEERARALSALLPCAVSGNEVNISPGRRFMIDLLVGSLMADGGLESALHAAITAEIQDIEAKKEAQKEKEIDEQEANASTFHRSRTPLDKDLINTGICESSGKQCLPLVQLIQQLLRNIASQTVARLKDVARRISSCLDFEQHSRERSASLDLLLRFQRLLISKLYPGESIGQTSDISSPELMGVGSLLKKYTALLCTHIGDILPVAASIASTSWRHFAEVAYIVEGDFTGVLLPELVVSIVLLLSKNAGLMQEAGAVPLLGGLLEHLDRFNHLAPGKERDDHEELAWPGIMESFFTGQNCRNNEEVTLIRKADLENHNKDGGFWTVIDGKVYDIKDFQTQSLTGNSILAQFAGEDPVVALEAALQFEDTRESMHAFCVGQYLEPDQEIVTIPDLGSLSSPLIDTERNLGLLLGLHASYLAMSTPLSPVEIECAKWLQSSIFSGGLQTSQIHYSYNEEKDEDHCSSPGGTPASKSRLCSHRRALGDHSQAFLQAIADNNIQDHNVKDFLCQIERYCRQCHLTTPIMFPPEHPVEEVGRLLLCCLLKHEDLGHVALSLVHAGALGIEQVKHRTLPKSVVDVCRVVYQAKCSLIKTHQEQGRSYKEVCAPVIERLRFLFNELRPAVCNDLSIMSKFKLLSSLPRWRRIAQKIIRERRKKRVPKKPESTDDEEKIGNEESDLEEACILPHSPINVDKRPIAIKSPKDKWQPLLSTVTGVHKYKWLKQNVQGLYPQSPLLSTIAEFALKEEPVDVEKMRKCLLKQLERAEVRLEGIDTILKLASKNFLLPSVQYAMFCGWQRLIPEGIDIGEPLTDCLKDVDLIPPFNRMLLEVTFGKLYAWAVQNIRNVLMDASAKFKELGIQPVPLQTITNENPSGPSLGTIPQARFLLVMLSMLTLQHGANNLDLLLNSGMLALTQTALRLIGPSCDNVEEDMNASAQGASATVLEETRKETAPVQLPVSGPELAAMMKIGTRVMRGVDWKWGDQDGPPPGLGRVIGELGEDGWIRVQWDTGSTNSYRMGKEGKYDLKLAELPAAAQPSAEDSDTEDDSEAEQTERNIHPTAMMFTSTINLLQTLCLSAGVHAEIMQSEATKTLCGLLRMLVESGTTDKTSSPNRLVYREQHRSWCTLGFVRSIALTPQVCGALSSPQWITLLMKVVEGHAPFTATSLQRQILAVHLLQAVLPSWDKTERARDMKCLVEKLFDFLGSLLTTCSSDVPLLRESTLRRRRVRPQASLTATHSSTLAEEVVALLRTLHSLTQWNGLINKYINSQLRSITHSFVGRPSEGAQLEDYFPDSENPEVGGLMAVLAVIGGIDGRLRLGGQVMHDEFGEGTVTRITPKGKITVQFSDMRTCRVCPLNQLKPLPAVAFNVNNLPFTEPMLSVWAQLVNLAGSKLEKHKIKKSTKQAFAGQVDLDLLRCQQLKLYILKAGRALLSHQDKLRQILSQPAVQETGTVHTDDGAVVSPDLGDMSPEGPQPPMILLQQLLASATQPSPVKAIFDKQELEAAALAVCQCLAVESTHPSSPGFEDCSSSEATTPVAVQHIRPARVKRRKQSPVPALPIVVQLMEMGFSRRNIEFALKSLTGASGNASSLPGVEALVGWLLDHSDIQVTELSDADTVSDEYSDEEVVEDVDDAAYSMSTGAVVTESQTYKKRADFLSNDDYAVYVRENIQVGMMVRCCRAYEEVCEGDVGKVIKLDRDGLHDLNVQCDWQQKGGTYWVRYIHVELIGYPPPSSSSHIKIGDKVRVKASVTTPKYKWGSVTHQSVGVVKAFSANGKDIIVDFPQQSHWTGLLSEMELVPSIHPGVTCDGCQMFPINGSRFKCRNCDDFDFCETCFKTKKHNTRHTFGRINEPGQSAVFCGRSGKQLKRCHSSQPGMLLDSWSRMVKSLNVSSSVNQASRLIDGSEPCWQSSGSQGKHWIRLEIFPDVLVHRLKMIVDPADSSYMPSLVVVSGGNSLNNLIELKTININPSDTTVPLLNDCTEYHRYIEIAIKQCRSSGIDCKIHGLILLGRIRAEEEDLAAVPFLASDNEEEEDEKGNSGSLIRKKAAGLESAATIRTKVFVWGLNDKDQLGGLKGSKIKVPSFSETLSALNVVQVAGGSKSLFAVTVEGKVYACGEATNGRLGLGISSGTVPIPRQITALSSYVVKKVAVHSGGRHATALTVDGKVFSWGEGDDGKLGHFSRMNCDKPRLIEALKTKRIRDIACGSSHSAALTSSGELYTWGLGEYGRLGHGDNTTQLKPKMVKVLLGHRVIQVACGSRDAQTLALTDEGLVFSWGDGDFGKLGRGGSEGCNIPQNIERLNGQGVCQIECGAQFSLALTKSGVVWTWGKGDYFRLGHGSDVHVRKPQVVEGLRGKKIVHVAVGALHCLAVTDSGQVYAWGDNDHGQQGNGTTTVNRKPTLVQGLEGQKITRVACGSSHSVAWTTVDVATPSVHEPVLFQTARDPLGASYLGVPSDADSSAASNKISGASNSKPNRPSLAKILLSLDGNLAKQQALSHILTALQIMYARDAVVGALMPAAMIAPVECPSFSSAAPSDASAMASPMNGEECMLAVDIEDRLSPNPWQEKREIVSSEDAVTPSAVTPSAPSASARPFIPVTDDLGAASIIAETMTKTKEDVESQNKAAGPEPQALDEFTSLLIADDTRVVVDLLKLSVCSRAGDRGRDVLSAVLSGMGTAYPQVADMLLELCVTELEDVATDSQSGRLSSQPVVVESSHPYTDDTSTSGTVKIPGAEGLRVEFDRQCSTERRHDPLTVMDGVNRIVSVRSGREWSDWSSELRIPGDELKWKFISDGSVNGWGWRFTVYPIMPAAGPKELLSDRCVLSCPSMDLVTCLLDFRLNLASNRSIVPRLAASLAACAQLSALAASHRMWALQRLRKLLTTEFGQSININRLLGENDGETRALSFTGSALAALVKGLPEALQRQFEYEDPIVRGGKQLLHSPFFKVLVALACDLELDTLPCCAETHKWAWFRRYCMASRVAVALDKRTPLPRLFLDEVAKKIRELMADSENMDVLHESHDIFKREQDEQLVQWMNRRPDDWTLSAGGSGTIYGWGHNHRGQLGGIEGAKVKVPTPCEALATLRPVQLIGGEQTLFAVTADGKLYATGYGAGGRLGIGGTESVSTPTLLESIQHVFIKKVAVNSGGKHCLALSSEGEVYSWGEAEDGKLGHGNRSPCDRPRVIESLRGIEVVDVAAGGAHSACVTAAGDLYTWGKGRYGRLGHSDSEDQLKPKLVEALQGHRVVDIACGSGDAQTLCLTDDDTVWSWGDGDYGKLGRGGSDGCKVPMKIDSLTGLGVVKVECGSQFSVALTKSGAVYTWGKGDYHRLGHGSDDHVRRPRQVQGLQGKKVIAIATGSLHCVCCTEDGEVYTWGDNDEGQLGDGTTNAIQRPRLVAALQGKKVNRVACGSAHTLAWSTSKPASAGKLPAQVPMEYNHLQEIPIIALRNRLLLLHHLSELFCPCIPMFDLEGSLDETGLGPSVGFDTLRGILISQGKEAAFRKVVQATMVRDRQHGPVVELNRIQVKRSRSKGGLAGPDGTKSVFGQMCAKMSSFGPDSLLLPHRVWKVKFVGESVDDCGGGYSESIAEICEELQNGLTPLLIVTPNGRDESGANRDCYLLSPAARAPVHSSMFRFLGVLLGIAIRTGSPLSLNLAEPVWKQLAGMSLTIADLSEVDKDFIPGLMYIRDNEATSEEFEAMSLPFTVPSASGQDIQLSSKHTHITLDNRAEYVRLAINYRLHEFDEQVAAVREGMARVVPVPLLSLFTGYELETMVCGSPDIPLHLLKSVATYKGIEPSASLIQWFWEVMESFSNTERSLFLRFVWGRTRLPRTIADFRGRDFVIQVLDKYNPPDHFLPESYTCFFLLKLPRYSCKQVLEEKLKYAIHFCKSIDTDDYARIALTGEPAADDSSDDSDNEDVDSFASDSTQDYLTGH

Target: Flag-ERβ (estrogen receptor beta, from Flag-ESR2 plasmid) (UniProt Q92731)
Assay: affinity purification with mass spectrometry; LC-MS/MS analysis of HEK293T cells transfected with Flag-ESR2 plasmids; Flag-ERβ as bait

Row | Substance | binding
1 | ASB8, endogenous (from UniProt Q9H765 1-288) | binds
2 | HERC2, endogenous (from UniProt O95714 1-4834) | binds
